Among the data in publication PMC8991007, “Benzylic Dehydroxylation of Echinocandin Antifungal Drugs Restores Efficacy against Resistance Conferred by Mutated Glucan Synthase” (Journal of the American Chemical Society, 2022) are IC50 values, retold here.

For the assay, the system named is THLE-2 cells. Kind of assay: cells. The format is cell-based. Conditions: Homo sapiens, THLE-2, 72 h, read-out: IC50 value (THLE-2 viability). As for the experimental part:
The effects of ANF and RZF and their dehydroxylated derivatives 1 and 2 on the viability of human cells were further evaluated in an assay with THLE-2 cells, which are a transformed human liver epithelial cell line. These cells express phenotypic characteristics of normal adult liver epithelial cells.
THLE-2 cells (ATCC, cat. no. CRL2706) were cultured in 384-well plates coated with BEBM (Lonza, cat. no CC3170) containing 100 μg/mL BSA, 1:100 fibronectin (Sigma, cat. no. F0895), and a 1:100 PureCol EZ Gel Solution (Sigma, cat. no. 5074) for 50–60 min at 37 °C. THLE-2 cells were plated at a density of 2.5 × 10^3 cells/well in the coated plates in a total volume of 20 μL. Culture media were BEGM supplemented with 5 ng/mL hEGF (Sigma, cat. no. E5036), 70 ng/mL phosphoethanolamine (Sigma, cat. no. P0503), and 10% fetal bovine serum. Plates were incubated overnight at 37 °C, 95% humidity, and 5% CO2. The culture medium was replaced with 50 μL of a fresh medium, and compounds were applied to the cells in triplicate. Plates were cultured for another 72 h, and ATP was quantified using a CellTiter-Glo kit (Promega #G7573) according to the manufacturer’s protocol. The luminescence signal was detected using a PHERAstar FS (BMG Labtech).

In the case of `CC/C(=C(\c1ccccc1)c1ccc(OCCN(C)C)cc1)c1ccccc1` [Tamoxifen], the IC50 (in general, the concentration that gives 50% inhibition) is about 20 µM.
